Measured values reported in article PMC6412121.
For some of these results: For at least one entry, the source does not settle the construct or the ends of the probe. For some of these results: At least one verdict was read from the data and is not stated in words by the source.

By UniProt entry, the sequences of proteins in these tests, tags left out.
UniProt Q13148, whole entry: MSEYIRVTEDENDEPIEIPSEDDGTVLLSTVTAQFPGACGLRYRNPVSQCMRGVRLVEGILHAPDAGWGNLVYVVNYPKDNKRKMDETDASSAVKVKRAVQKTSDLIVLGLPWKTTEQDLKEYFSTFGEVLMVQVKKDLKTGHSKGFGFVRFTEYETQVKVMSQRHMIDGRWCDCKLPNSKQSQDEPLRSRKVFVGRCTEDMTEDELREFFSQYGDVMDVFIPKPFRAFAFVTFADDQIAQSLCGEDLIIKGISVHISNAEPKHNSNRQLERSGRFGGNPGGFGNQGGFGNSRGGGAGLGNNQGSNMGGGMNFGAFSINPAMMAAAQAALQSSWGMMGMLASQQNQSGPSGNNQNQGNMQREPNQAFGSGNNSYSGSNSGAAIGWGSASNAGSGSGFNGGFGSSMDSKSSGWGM

Experiments:
TF-TDP-43-FL [1] = molecular target: TF-TDP-43-FL (UniProt Q13148); experiment: EMSA; details: biotin-UTP incorporated in transcription; EMSA: 40 mM Tris-HCl pH 7.4, 30 mM KCl, 1 mM MgCl2, 0.01% IGEPAL CA-630, 1 mM DTT, 10 ug yeast tRNA, 10 ug BSA, 10 ng RNA, 200 ng protein in 10 ul, 25 C, 20 min; recombinant protein; residues 1-414; protein details: TF; label: biotin; probe letters rebuilt from the primers and the genome
TF-TDP-43-FL [2] = molecular target: TF-TDP-43-FL (UniProt Q13148); experiment: competition with a labelled probe; details: unlabeled competitor in EMSA, interrupts binding of scaRNA2, 7, 9 and 28; EMSA: 40 mM Tris-HCl pH 7.4, 30 mM KCl, 1 mM MgCl2, 0.01% IGEPAL CA-630, 1 mM DTT, 10 ug yeast tRNA, 10 ug BSA, 10 ng RNA, 200 ng protein in 10 ul, 25 C, 20 min; recombinant protein; residues 1-414; protein details: TF

Row | Sequence | binding result (TF-TDP-43-FL [1]) | binding result (TF-TDP-43-FL [2])
1 | GGGAGACUUUCUGAGAUCUGCUUUUAGUGAAGUGGAUCAAUGAUGAAACUAGCCAAAUCUGAGCAUCAGAAGUCUUUCCAGUCUACCUGAUGCAUGAUCUCUACAGUUCUGAGAAGCAAAACUAUAAAACAAUGUAAAACAAUAAGGGCAUAUGUCUGGUGUGUGUGUGUGUGUGUGUGUGUGUGUGUGUGUGUACGCACAUGUGUUUAUAAAGAUAACAGCUGUAGGAAUGAAUGAGAUUGAGGGUGGGGGGGUGCGUAUGUAUGUCUAUGAAAGCCUAAUCAUUUCUGGGCAAUGAUGAAAAGGUUUUACUACUGAUCUUUGUAACUAUGAUGGUUUCUACACUUGACCUGAGCUCA [scaRNA9] | binds | –
2 | UGUGUGUGUGUG [(UG)6] | – | binds
3 | GGGAGAUGGAAAUGAUGAAAUAGAGAUAAUUGGGUGUUGAAUGUUGUAUGACUGGAAAUUUUUAAUAUGUAUAUUAUGUAAUUCUUAUAAGUUUAGUGUUUUAUAGGUACUUAAUAGAGAGUGUGUAUGCAUGUGUGUGUGCUUGUGGUGGCUAUGGAAAGGGGGCACUGACUGGUGAUGCUGAUAUUGGAGUGCAUCUGAGGCUGUUGUAGAAAUAACAUGGGUUGUUGAUUACAACAUUGCCAAUGAUUAUAACCCAAGAACAGCUCACCUAACUAGCCUGGCACCCUAAAAUCUCUAACAGGUUCAUUAAAAUGGUCCUGUGAUCUGAUCCAA [scaRNA7 (U90)] | binds | –
4 | GGGAGAGUUUUAGGGAGGGAGAGCGGCCUGGGUCCUGGGUGUUGUGUGCGGAGCUGUGGCGUCGCGUGUGAGGCGCGUGCAGGGUGAGUGUGAGUGGACGCGUGAGUGUGUGAGUGUGCGCGCUUGGAGCGUGUUAGGCGAGUGCGUGCGCCCACCCCUGCGCCCCUCCUCCCGCUUACACUUUGAUCUUAUUUGAUCGGAUCGUGACCCCAGCCCCGCCGGGCCGACCCGAAAUGAAAAGCUCUCCUCCUGCGAAGCCCCCUCGGGGCGCUGUGCAGCGAGGCCCCUUAGGCGGCGGCCACGCUGUGGUCCCCGAGGUCCCGGAGCUGGCCCUGCGGGGCCCGGCGCUCAGAAGUGAUGAAUUGAUCAGAUAGACGAGGCCGGGCUUGUCCCCGGCCACUGAUUAUCGAGGCGAUUCUGAUCUGG [scaRNA2] | binds | –
